± gives the standard deviation of the averaged measurements. Only a part is listed here, and it is no random draw.
Compound: Nc1ncnc2c1ncn2[C@@H]1O[C@H](COP(=O)(O)OP(=O)(O)NP(=O)(O)O)[C@@H](O)[C@H]1O [adenylyl imidodiphosphate]
Assay: NP40-soluble protein abundance relative to vehicle (solubility fold change) (ratio); higher = more soluble protein in presence of AMP-PNP
Procedure, shortened: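 Across three independent experiments, values are fold changes against the detergent-processed vehicle for each replicate, based on vsn-normalised intensities. The samples were Jurkat crude lysate treated with eight concentrations (0.1 to 10 mM) for 10 min at room temperature and then 3 min at 37 °C. Lysate was solubilised with 0.8% NP40 and benzonase, ultracentrifuged, and the supernatant analysed by TMT-labelled LC-MS/MS.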

Chains of the proteins cited; added tags and fusions are not shown. Lines headed by an entry give the natural chain unless they say otherwise; changes in a name come on top.
UniProt Q6P1K2: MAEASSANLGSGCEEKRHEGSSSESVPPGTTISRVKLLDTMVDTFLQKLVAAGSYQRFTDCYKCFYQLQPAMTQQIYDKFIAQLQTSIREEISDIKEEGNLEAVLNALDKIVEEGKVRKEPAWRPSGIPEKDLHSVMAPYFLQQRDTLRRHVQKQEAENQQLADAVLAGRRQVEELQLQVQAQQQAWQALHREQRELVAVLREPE
UniProt Q6P1X6: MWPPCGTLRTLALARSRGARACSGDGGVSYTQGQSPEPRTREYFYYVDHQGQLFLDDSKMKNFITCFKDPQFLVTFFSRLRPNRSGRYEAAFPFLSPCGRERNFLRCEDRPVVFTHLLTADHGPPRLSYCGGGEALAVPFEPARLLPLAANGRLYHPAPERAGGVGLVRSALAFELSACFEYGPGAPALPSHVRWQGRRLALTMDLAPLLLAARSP
UniProt Q6IEG0: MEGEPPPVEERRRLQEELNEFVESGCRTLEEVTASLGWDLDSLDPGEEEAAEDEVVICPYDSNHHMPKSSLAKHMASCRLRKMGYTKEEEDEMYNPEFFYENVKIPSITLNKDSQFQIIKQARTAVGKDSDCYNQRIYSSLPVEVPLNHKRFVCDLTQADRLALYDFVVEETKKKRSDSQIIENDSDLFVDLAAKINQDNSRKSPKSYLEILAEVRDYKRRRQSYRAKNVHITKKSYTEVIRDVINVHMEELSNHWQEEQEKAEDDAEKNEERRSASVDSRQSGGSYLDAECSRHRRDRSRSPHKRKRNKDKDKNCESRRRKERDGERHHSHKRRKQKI
UniProt Q7Z422: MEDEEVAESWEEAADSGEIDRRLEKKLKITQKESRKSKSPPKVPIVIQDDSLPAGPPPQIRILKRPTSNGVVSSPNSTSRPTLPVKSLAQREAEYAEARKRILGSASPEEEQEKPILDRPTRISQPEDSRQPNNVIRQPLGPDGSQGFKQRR
UniProt Q7Z2T5: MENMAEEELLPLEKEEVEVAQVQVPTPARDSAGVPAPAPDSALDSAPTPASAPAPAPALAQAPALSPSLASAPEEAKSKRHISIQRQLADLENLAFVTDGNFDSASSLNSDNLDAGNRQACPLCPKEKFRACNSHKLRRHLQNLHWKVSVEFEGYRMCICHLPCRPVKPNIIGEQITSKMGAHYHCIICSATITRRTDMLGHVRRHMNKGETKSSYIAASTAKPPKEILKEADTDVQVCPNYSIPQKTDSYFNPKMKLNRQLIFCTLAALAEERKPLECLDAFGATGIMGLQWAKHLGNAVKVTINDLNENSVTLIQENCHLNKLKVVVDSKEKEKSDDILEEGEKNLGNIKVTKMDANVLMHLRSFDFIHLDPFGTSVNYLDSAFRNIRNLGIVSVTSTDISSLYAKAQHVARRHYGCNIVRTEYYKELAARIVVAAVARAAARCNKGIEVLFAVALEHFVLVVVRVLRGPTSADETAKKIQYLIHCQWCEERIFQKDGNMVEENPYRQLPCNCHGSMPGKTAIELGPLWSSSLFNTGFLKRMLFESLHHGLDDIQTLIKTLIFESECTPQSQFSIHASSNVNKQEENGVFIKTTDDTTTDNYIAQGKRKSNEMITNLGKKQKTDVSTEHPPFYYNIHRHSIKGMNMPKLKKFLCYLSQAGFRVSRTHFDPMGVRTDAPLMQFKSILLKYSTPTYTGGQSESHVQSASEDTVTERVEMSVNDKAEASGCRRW
UniProt Q6PI78: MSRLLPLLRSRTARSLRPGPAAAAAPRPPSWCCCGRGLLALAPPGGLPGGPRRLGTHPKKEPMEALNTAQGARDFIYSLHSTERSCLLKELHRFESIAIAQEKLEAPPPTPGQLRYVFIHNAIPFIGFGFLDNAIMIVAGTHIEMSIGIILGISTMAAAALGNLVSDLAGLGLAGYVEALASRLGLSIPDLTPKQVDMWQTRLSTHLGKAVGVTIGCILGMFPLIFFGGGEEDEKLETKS
UniProt Q7L1Q6: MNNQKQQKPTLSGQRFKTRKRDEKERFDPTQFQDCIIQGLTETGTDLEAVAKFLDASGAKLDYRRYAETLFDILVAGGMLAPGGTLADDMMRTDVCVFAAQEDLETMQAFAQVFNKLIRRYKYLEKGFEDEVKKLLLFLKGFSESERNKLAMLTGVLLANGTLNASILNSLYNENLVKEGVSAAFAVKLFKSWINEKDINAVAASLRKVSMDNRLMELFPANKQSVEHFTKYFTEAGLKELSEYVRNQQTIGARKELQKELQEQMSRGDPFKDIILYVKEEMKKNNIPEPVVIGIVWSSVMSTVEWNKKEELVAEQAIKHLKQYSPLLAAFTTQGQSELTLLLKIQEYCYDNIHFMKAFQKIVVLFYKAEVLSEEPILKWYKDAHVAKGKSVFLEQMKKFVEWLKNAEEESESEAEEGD
UniProt Q6P2P2: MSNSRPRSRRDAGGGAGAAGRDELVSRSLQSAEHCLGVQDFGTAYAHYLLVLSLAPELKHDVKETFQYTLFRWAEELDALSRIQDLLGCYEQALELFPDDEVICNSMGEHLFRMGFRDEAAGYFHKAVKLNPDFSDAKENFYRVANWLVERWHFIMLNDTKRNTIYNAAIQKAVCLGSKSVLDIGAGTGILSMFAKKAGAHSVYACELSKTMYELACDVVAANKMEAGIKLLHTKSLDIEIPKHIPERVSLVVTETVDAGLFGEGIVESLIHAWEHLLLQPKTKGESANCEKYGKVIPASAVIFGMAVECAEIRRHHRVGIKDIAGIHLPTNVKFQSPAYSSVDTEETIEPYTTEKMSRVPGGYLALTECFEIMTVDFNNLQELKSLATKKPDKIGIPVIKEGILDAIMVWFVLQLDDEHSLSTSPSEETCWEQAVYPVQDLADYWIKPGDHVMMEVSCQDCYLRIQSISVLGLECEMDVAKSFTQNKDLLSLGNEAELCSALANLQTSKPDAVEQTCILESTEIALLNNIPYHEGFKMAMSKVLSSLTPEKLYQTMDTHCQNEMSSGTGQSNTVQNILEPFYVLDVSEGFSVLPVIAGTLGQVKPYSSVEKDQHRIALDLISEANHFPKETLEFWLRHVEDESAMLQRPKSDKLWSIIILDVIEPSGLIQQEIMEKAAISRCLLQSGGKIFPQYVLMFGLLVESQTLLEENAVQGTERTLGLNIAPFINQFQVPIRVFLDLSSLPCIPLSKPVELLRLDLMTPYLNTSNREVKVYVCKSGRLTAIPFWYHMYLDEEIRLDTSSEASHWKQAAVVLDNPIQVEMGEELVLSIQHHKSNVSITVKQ
UniProt Q6P4F7: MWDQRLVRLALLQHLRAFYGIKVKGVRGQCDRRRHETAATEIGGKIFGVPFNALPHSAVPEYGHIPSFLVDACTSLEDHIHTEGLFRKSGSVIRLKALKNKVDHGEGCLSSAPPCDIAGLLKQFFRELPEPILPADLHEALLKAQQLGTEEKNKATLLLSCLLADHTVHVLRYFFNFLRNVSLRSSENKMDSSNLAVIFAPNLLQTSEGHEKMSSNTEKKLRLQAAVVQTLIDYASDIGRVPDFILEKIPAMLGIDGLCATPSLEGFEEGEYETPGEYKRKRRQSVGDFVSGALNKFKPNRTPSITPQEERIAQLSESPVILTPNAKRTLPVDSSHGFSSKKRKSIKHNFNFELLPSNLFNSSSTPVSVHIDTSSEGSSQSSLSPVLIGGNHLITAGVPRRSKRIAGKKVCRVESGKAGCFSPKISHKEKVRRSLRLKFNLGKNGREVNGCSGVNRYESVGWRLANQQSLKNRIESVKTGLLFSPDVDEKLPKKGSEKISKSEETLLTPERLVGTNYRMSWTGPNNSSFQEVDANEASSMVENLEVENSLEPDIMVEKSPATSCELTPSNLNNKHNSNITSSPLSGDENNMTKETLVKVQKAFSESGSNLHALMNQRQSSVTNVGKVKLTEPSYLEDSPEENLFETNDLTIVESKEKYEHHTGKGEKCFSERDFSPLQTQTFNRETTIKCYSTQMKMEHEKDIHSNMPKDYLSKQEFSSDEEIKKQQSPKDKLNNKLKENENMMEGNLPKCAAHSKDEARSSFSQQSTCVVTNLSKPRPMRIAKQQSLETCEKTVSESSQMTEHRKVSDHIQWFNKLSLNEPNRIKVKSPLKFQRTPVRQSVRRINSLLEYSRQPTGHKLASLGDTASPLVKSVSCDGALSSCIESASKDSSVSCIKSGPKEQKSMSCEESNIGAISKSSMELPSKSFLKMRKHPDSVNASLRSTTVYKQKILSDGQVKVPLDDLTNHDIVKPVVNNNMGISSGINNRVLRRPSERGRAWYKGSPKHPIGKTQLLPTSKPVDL
UniProt Q7LGA3: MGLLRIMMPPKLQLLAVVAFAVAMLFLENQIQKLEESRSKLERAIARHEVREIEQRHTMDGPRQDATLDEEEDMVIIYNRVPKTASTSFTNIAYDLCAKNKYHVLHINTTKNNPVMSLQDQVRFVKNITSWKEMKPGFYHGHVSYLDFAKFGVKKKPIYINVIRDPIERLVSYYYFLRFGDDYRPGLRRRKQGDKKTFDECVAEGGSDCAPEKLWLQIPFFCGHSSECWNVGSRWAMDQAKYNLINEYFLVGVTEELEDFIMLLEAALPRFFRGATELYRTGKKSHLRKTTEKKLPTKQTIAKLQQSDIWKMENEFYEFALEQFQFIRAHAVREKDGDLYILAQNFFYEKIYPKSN
UniProt Q6PD74: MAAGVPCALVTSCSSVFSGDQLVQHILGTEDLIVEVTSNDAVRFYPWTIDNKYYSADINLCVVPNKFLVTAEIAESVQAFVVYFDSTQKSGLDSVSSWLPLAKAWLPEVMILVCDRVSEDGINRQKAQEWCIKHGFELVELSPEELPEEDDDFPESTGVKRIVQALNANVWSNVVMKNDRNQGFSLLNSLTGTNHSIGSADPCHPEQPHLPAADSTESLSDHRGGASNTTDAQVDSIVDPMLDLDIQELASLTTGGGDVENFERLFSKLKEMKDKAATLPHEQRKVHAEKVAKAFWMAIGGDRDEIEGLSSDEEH
UniProt Q7L775: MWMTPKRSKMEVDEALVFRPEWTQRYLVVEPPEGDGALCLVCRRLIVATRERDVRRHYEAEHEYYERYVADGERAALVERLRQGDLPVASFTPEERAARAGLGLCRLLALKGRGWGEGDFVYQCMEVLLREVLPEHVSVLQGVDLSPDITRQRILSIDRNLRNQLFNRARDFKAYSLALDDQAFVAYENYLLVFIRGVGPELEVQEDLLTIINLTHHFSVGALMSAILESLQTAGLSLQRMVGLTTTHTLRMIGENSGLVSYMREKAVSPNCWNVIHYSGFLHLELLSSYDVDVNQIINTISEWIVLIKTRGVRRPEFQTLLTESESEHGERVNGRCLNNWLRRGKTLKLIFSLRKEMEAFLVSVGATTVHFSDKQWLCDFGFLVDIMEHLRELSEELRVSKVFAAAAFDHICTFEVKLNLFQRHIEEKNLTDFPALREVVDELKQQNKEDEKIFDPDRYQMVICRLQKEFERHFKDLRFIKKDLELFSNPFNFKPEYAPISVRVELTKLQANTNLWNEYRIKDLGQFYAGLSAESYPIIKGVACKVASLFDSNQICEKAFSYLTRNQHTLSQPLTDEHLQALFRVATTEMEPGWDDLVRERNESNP
UniProt Q6ZMD2: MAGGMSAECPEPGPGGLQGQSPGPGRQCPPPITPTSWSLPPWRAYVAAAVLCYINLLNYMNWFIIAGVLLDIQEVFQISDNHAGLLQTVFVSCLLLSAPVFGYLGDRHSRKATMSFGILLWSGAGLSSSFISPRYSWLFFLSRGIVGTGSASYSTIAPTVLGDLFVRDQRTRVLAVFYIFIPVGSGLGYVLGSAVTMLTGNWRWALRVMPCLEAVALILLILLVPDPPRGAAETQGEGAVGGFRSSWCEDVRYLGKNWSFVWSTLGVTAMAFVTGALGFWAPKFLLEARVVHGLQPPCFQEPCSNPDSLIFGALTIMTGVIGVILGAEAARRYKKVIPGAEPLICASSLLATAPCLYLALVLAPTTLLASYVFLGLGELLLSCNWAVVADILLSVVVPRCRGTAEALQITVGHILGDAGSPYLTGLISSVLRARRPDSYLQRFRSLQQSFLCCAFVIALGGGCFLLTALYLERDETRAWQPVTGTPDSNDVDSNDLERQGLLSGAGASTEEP
UniProt Q6UN15: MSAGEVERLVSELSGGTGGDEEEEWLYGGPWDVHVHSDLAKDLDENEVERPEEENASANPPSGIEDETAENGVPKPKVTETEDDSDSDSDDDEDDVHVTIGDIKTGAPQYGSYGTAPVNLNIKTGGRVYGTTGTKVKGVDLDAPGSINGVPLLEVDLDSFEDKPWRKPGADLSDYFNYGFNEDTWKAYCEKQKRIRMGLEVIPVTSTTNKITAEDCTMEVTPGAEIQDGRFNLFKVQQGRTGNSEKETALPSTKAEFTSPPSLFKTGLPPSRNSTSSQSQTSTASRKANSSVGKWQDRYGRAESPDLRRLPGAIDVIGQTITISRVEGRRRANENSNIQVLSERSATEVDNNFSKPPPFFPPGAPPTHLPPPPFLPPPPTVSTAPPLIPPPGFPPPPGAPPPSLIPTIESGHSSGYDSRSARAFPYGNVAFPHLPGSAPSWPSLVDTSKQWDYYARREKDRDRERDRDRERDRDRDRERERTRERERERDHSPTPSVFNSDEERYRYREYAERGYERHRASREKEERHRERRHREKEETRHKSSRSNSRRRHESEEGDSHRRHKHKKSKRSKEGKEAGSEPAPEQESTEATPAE

Target | NP40-soluble protein abundance (concentration: 1mM) | NP40-soluble protein abundance (concentration: 2mM) | NP40-soluble protein abundance (concentration: 4mM) | NP40-soluble protein abundance (concentration: 6mM) | NP40-soluble protein abundance (concentration: 8mM) | NP40-soluble protein abundance (concentration: 10mM)
PMF1 (UniProt Q6P1K2) | 0.963 ± 0.037 | 0.981 ± 0.06 | 0.938 ± 0.047 | 0.941 ± 0.018 | 0.933 ± 0.02 | 0.931 ± 0.059
UniProt Q6P1X6 and related entries | 1 ± 0.024 | 1 ± 0.013 | 1.02 ± 0.034 | 0.968 ± 0.028 | 0.986 ± 0.056 | 1.01 ± 0.032
SNRNP48 (UniProt Q6IEG0) | 1.05 ± 0.051 | 1.19 ± 0.13 | 1.09 ± 0.062 | 1.1 ± 0.039 | 1.08 ± 0.011 | 1.14 ± 0.066
UniProt Q6IN85 | 1.004 ± 0.0094 | 1.013 ± 0.0098 | 1.002 ± 0.0077 | 0.991 ± 0.042 | 0.985 ± 0.013 | 0.98 ± 0.029
RNF123 (UniProt Q5XPI4) | 0.953 ± 0.024 | 0.9501 ± 0.0088 | 0.965 ± 0.025 | 0.971 ± 0.024 | 0.941 ± 0.027 | 0.949 ± 0.014
UniProt Q7Z422 and related entries | 1.09 ± 0.046 | 1.09 ± 0.058 | 1.05 ± 0.049 | 0.992 ± 0.075 | 0.989 ± 0.039 | 1.01 ± 0.067
UniProt Q7Z2T5 | 1.07 ± 0.016 | 1.04 ± 0.018 | 1.07 ± 0.048 | 1.07 ± 0.077 | 1.12 ± 0.044 | 1.15 ± 0.066
TMEM65 (UniProt Q6PI78) | 0.958 ± 0.054 | 1.02 ± 0.093 | 0.976 ± 0.057 | 0.99 ± 0.028 | 0.9858 ± 0.0075 | 0.947 ± 0.047
UniProt Q7L1Q6 | 0.984 ± 0.042 | 1.01 ± 0.033 | 0.969 ± 0.05 | 1.01 ± 0.048 | 0.987 ± 0.04 | 0.998 ± 0.053
UniProt Q6P2P2 | 1.04 ± 0.022 | 1.01 ± 0.093 | 1.01 ± 0.038 | 0.966 ± 0.049 | 0.988 ± 0.039 | 1 ± 0.036
UniProt Q6ZMI0 | 1.04 ± 0.014 | 1.09 ± 0.068 | 1.03 ± 0.018 | 1.01 ± 0.013 | 0.978 ± 0.015 | 1.01 ± 0.028
ARHGAP11A (UniProt Q6P4F7) | 1.07 ± 0.034 | 0.978 ± 0.011 | 1.01 ± 0.029 | 0.985 ± 0.024 | 1.04 ± 0.019 | 0.964 ± 0.015
HS2ST1 (UniProt Q7LGA3) | 1.02 ± 0.028 | 1.04 ± 0.058 | 1.14 ± 0.032 | 1.2 ± 0.079 | 1.23 ± 0.06 | 1.2 ± 0.02
AAGAB (UniProt Q6PD74) | 1.07 ± 0.052 | 1.11 ± 0.11 | 1.03 ± 0.05 | 1.02 ± 0.016 | 1.04 ± 0.021 | 1.01 ± 0.017
MRPL14 (UniProt Q6P1L8) | 0.952 ± 0.043 | 0.988 ± 0.043 | 0.991 ± 0.037 | 1.04 ± 0.03 | 1.04 ± 0.038 | 1.04 ± 0.035
EPM2AIP1 (UniProt Q7L775) | 0.961 ± 0.015 | 0.94 ± 0.032 | 0.96 ± 0.025 | 0.947 ± 0.028 | 0.9617 ± 0.0055 | 0.958 ± 0.041
SPNS3 (UniProt Q6ZMD2) | 1.002 ± 0.0046 | 0.997 ± 0.017 | 0.991 ± 0.016 | 1.01 ± 0.011 | 1 ± 0.017 | 0.989 ± 0.025
USP34 (UniProt Q70CQ2) | 0.958 ± 0.032 | 0.925 ± 0.044 | 0.955 ± 0.026 | 0.885 ± 0.021 | 0.877 ± 0.033 | 0.873 ± 0.014
UniProt Q6UN15 and related entries | 1.03 ± 0.024 | 1.11 ± 0.062 | 1.059 ± 0.0078 | 1.07 ± 0.053 | 1.08 ± 0.034 | 1.15 ± 0.064
UniProt Q6NS38 and related entries | 1.01 ± 0.022 | 1.038 ± 0.0089 | 1.03 ± 0.013 | 1.05 ± 0.032 | 1.04 ± 0.021 | 1.03 ± 0.028

Single records, as listed above. Values in the order: NP40-soluble protein abundance (concentration: 1mM) | NP40-soluble protein abundance (concentration: 2mM) | NP40-soluble protein abundance (concentration: 4mM) | NP40-soluble protein abundance (concentration: 6mM) | NP40-soluble protein abundance (concentration: 8mM) | NP40-soluble protein abundance (concentration: 10mM)
HS2ST1 (UniProt Q7LGA3) as listed: 1.02 ± 0.028 | 1.04 ± 0.058 | 1.14 ± 0.032 | 1.2 ± 0.079 | 1.23 ± 0.06 | 1.2 ± 0.02
UniProt Q7Z422 and related entries as listed: 1.09 ± 0.046 | 1.09 ± 0.058 | 1.05 ± 0.049 | 0.992 ± 0.075 | 0.989 ± 0.039 | 1.01 ± 0.067

Reference: the supplement of paper PMC6411743
